Patent US11614423B2, “Transformed response potentiometric titrations” (UNIVERSITEIT ANTWERPEN, priority 2014, dated 2023)
For at least one compound, name, drawing or mass did not settle the structure.

System: Cocaine Binding Aptamer (CBA)
Test: Transformed response potentiometric titration of different ligands with CBA as titrant (cross-reactivity)
Details: Post-EP method; 10^−5 M ligand in 1 mM MES buffer pH 7, CBA as titrant

**Q.** `COC(=O)[C@H]1[C@@H](OC(=O)c2ccccc2)C[C@@H]2CC[C@H]1N2C` [cocaine] was tested. Which Ka did it give?
**A.** The Ka was 960000 M⁻¹.
